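Compounds were printed on reactive glass slides in duplicate spots, a dye-labelled oligonucleotide was laid over them, and the fluorescence left after washing was read. The data file lists only calls. An earlier report of the laboratory on the PreQ1, TPP and SAM-II riboswitches (doi:10.1038/s41467-019-09493-3) used 1 µM RNA for 2 h and required a mean Z-score above 3 (spot signal-to-noise against the whole library), a score well above that on a control array, and duplicate spots agreeing (coefficient of variation under 100); it then also set aside compounds that hit other targets, which this list keeps. The cut-offs behind this list may differ. These are primary screening calls, not affinities; a compound without a hit may have attached poorly or may still bind in solution.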 A compound is marked yes if it was called a hit and no if it was screened but was not. This is an unselected part of the compounds tested. A dash means that no call is listed here.

Oligonucleotides screened, 5′ to 3′:
PreQ1: PreQ1 riboswitch RNA pseudoknot, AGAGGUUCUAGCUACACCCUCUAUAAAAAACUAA. From B. subtilis. About 24,000 compounds screened, about 170 hits.
SAM-II: SAM-II riboswitch RNA pseudoknot, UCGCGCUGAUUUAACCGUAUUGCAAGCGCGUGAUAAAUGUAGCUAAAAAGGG. About 21,000 compounds screened, about 200 hits.
TPP: TPP riboswitch RNA three-way junction, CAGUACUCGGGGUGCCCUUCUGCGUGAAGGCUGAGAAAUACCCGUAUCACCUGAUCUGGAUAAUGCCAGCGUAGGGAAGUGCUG. About 24,000 compounds screened, about 160 hits.

structure | PreQ1 | SAM-II | TPP
Cn1nc(C(F)(F)F)cc1C(=O)N1CCC2(CC1)OCCCC2O (stereo not drawn) | no | no | no
COc1ccc(-c2coc3cc(O)ccc3c2=O)cc1 | no | no | no
O=C(CCCO)NCCc1nc2ccccc2n1Cc1c(F)cccc1Cl | no | - | no
OCCn1cc(-c2cnc3nnn(Cc4ccc5ncccc5c4)c3n2)cn1 | no | no | no
Cc1nc2sc3c(NCCC(C)C)ncnc3c2c2c1COC(C)(C)C2 | no | no | no
COC(=O)CCCNc1cc(C)nc2nc(-c3ccccc3)nn12 | no | - | no
CC(O)C1CCN(C(=O)CCC(=O)NC2CCCCCCC2)CC1 (stereo not drawn) | no | no | no
FC(F)(F)c1cc(-c2ccc(Cl)cc2)nc(NCCc2ccccc2)n1 | no | no | no
CCCc1nc(-c2cc3ccc(C)cc3nc2NCc2cccc(OC)c2OC)no1 | no | - | no
N#CC1=C(N)OC2=C(CCc3ccccc32)C1c1ccccc1Cl (stereo not drawn) | no | no | no
Nc1nc(-c2cc3ccccc3o2)nc(N2CCc3ccccc32)n1 | no | no | no
Cc1ccc2nc(NC(=O)CSc3nc4c(c(=O)n3-c3ccccc3)SCC4)sc2c1 | no | no | no
O=C(O)[C@H]1C[C@@H](O)CCN1Cc1ccccc1Cn1cccn1 | no | no | no
Cc1nc(CC(=O)NCCN2CCCCC2CO)cs1 (stereo not drawn) | no | no | no
Cc1ccc(-n2nc(CO)c(C(=O)NC(C)c3ccc(Cl)cc3)n2)cc1 (stereo not drawn) | no | - | no
C=CCn1cc(CNCCS(=O)(=O)N2CCCC2)c(C)n1 | no | no | no
CCc1sc(NC2=NS(=O)(=O)c3ccccc32)nc1-c1ccccc1 | no | no | no
Cc1ccc(-c2cnc3c(-c4ccc(Cl)cc4)c(C)nn3c2N)cc1 | no | no | no
CCOc1ccc(-c2cnc(NCc3ccccc3OC)n2C)cc1 | no | no | no
CCn1c(NCCc2ccccc2)nc2c1c(=O)n(C)c(=O)n2C | no | no | no
COc1ccc2[nH]cc(C(=O)N3CC[C@H](CO)[C@@H](O)C3)c(=O)c2c1 | no | no | no
COc1cccc(C=C2CCCC3=C2OC(N)=C(C#N)C3c2cccc(OC)c2)c1 (stereo not drawn) | no | no | no
COc1cccc(OCc2nc([C@@H]3C[C@H]3c3ccccc3)n(CCO)n2)c1 | no | no | no
CCOC(=O)c1ccc(NC2c3ncccc3C(=O)N2c2ccc(C)cc2)cc1 (stereo not drawn) | no | - | no
COc1ccc2cc(C3CN(C(=O)CCN)CCO3)ccc2c1 (stereo not drawn) | no | no | no
Nc1nc(Cl)nc2c1ncn2[C@H]1C[C@H](O)[C@@H](CO)O1 | no | no | no
NS(=O)(=O)c1ccc(CNC2CCN(c3ncccn3)CC2)cc1 | no | no | no
CCc1ccc(CNC(=O)c2nn(-c3ccc(CC)cc3)nc2CO)cc1 | no | - | no
CCN(CC)CCCNc1ncnc2sc3c(c12)CC(C)CC3 (stereo not drawn) | no | no | no
C=C(C)COc1cccc(CNC(C)Cn2nc(C)cc2C)c1 (stereo not drawn) | no | no | no
CCc1ccc(CN2CC[C@@H](NC(=O)c3cnccn3)[C@H](O)C2)cc1 | no | no | no
NC(=O)[C@@H](CCC(F)(F)F)N(Cc1ccc(-c2ncon2)cc1F)S(=O)(=O)c1ccc(Cl)cc1 | no | no | no
COc1ccccc1-c1cc2nc(C)cc(NC(C)c3ccccc3)n2n1 (stereo not drawn) | no | - | no
COc1cccc(N2CC(c3nc4ccccc4n3CC(O)COc3ccc(C)c(C)c3)CC2=O)c1 (stereo not drawn) | no | - | no
Nc1nc(CCC(=O)N2C[C@H]3CC[C@@H]2CN(Cc2ccccc2)C3)cs1 | no | no | no
Cc1ccc(NC(=O)N2CCN(C(=O)c3nonc3N)CC2)cc1F | no | - | no
COCc1cc(C)nc2sc(C(=O)OC)c(N)c12 | no | no | no
Cc1cc(C(F)(F)F)nc(N2CCN(C(=O)C(O)CC(C)C)CC2)n1 (stereo not drawn) | no | no | no
Cc1ccnc(NCCN2CC(=O)N3CC[C@@H](O)C[C@H]3C2=O)c1 | no | no | no
Nc1ccc(-c2ccccc2CO)cn1 | no | no | no
Cc1ccc(C2CC(=O)c3cnc(NC4CCCC4)nc3C2)cc1 (stereo not drawn) | no | no | no
CCCCC(N)C(C)=O (stereo not drawn) | no | no | no
COC(=O)CCC(=O)N(CC=Cc1ccccc1)CCO | no | no | no
CC=C(C)C(=O)O[C@H]1C(C)=C[C@]23C(=O)[C@@H](C=C(CO)[C@@H](O)[C@]12O)[C@H]1[C@@H](C[C@H]3C)C1(C)C | no | no | no
Cc1nc(S(=O)(=O)N2CC[C@H]3NCCC[C@]3(C(=O)O)C2)cn1C | no | no | no
CC(C)(CO)Nc1nc(N2CCOCC2)nc(N2CCOCC2)n1 | no | no | no
CCc1cc(-c2cc(-c3[nH]c(C)c(C(=O)O)c3C)nc(N)c2C#N)[nH]n1 | no | no | no
CC1CCN(Cc2nc3c(c(=O)n(C)c(=O)n3C)n2CCCO)CC1 | no | no | no

The last 4 entries again:

| structure | PreQ1 | SAM-II | TPP |
|---|---|---|---|
| `Cc1nc(S(=O)(=O)N2CC[C@H]3NCCC[C@]3(C(=O)O)C2)cn1C` | no | no | no |
| `CC(C)(CO)Nc1nc(N2CCOCC2)nc(N2CCOCC2)n1` | no | no | no |
| `CCc1cc(-c2cc(-c3[nH]c(C)c(C(=O)O)c3C)nc(N)c2C#N)[nH]n1` | no | no | no |
| `CC1CCN(Cc2nc3c(c(=O)n(C)c(=O)n3C)n2CCCO)CC1` | no | no | no |

Data from the ROBIN nucleic acid binder screens, doi:10.1002/anie.202211358.